Measured values taken from PubChem BioAssay AID2685 (National Center for Advancing Translational Sciences (NCATS), 2010).
This is one part of the list. Shown are side measurements of this screen, not its main read-out; they come without a call. The list favours compounds with an active or inconclusive main result. Potencies come from curve fits of mixed quality, noted in brackets.

Experiment: qHTS Assay for Lipid Storage Modulators in Drosophila S3 Cells;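 as to cell number change: cells counted by Cell Tracker Red CMTPX staining in the red channel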
Settings: BODIPY lipid droplet fluorescence, 18-24 h; for cell number change: measured here: cell count max response, cells fed with added oleic acid
Method in brief: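 Drosophila S3 cells got compounds at several concentrations plus oleic acid (400 uM solution). Laser-scanning cytometry with 488 nm excitation read lipid droplets at 500-530 nm and cells at 575-640 nm. Percent activity was relative to 20 uM Triacsin C.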

[1] = measured here: lipid fluorescence (Fed channel) AC50, cells fed with added oleic acid
[2] = measured here: cell number channel AC50, cells fed with added oleic acid

Compound	cell number change [%]	AC50 [1]	AC50 [2]
C=C(C)C1Cc2c(C)nn(-c3nc(C)cc(C)n3)c2C1 (stereo unspecified)	-9.33	0.259 µM [rising, partial curve, poor fit]	
Cc1ccc(S(=O)(=O)/N=S(\C)CC2CC2(Cl)Cl)cc1 (stereo unspecified)	23.9	0.58 µM [rising, single point]	
CN1CCCN(C(=O)CNC(=O)Cc2ccccc2)CC1	33.4		29.1 µM [rising, single point]
C/C(=N\NC(=S)Nc1ccc(F)cc1)C1CC1		0.731 µM [rising, single point]	
Cc1ccc(NC(=O)C2CCN(S(=O)(=O)c3cccs3)CC2)cc1C	-36.1	20.6 µM [falling, single point]	16.4 µM [falling, single point]
Cc1cc(C)cc(C(=O)NC(CC(N)=O)c2ccc(N3CCN(c4ccccc4)CC3)c([N+](=O)[O-])c2)c1 (stereo unspecified)	16.8		
CN1CCN(CC#CCC(O)(c2ccccc2)c2ccccc2)CC1	-8.65	3.26 µM [rising, single point]	
CCOC(=O)CCCNC(=O)CCCNC(=O)C(c1ccccc1)c1ccccc1	-4.09	29.1 µM [falling, single point]	
O=C(NCC(c1ccco1)N1CCc2ccccc2C1)c1ccccc1 (stereo unspecified)	-20.5		
Cc1ccccc1OCC(=O)Nc1ccc(N2CCOCC2)cc1N1CCOCC1	-16.5	2.06 µM [rising, partial curve, poor fit]	
CCOc1cc(-c2cc(-c3ccc(OC)cc3)nc(N)c2C#N)ccc1O	-14.1		0.103 µM [falling, full curve, poor fit]
CCCCOc1ccc(Cl)cc1CSc1nnc(C)n1N			3.26 µM [rising, single point]
CC(C)c1ccc(NC(=O)CSc2nc3ccsc3c(=O)n2CCC(=O)O)cc1	105	29.1 µM [falling, partial curve]	16.4 µM [rising, single point]
O=c1c2ccccc2oc2ccc(NCCCN3CCOCC3)cc12	-1.94	20.6 µM [rising, partial curve]	
O=C(N/C(=C\c1ccc(Br)cc1)C(=O)N1CCCC1)c1cccs1	7.44		
CNC(=S)N1CCN(c2ccc(Cl)c(Cl)c2)CC1	4	29.1 µM [falling, single point]	
C/C(=N\NC(=O)c1nnn(-c2nonc2N)c1CSc1ccccc1)c1cccnc1	-15.3		
CCc1ccc2c(c1)C1(NN=C(c3ccccc3)S1)C(=O)N2 (stereo unspecified)	-69.3	25.9 µM [falling, partial curve]	25.9 µM [falling, partial curve]
CCCCCCCCCCCCCCCC[N+](C)(C)CC	-61.1	11.6 µM [falling, partial curve]	14.6 µM [falling, partial curve, poor fit]
CCOc1cc(N2CCOCC2)c(OCC)cc1NC(=O)c1c(C)noc1C	1.39	7.31 µM [rising, partial curve]	
COc1ccc(CNC(=S)NCc2ccc(F)cc2)cc1OC	-33.2		

Pulled one by one from the entries so far (two):
Compound	cell number change [%]	AC50 [1]	AC50 [2]
O=c1c2ccccc2oc2ccc(NCCCN3CCOCC3)cc12	-1.94	20.6 µM [rising, partial curve]	
CCCCCCCCCCCCCCCC[N+](C)(C)CC	-61.1	11.6 µM [falling, partial curve]	14.6 µM [falling, partial curve, poor fit]

Carrying on.

Compound	cell number change [%]	AC50 [1]	AC50 [2]
COc1ccc(-c2csc(NC(C)=O)n2)cc1OC	-1.79	1.84 µM [rising, partial curve]	
COC(=O)c1cc(=O)nc2sccn12	19.8	0.651 µM [falling, single point]	0.231 µM [rising, full curve, poor fit]
O=C(COc1ccc([N+](=O)[O-])cc1)Nc1cc(S(=O)(=O)N2CCCCC2)ccc1N1CCCCC1	42.9	9.2 µM [rising, partial curve]	8.2 µM [rising, partial curve]
Cc1cc(Cl)ccc1OCC(O)CNCCc1ccc(S(N)(=O)=O)cc1 (stereo unspecified)		29.1 µM [rising, single point]	
CC(/C=C1\NC(=S)NC1=O)=C\c1ccccc1	-30.6	0.0517 µM [falling, full curve, poor fit]	16.4 µM [falling, single point]
COc1ccc(Cl)cc1C(=O)n1nc(C)cc1C	34.3	6.51 µM [falling, single point]	6.51 µM [rising, partial curve, poor fit]
CC[C@H](C)[C@H](NS(=O)(=O)c1ccc(C)cc1)C(=O)N1CCC(C(=O)N[C@@H](C)C(=O)O)CC1	-35.1	0.82 µM [falling, full curve, poor fit]	0.651 µM [falling, full curve]
Nc1ncc([N+](=O)[O-])c(Oc2ccccc2F)n1	-17.5	0.231 µM [falling, full curve]	
COc1ccccc1CNC(=O)CN1C(=O)c2ccc([N+](=O)[O-])cc2C1=O	6.58	5.62 µM [rising, single point]	
COc1ccccc1-c1nc(C#N)c(N2CCC(C(N)=O)CC2)o1	-0.713	23.1 µM [falling, single point]	
Cc1onc(C(=O)NCc2ccccn2)c1[N+](=O)[O-]	11.4		
Cc1ccc(S(=O)(=O)NC(=O)Nc2c(C)cccc2C)cc1	-3.81	6.51 µM [falling, single point]	
CC1CCCN(c2nc3ccccc3nc2C(C#N)S(=O)(=O)c2ccccc2)C1 (stereo unspecified)	-19.1	0.0731 µM [falling, full curve, poor fit]	
O=[N+]([O-])c1cccc(/C(=N/N=C/c2ccccc2Br)C23CN4CN(CN(C4)C2)C3)c1	11.8	1.3 µM [rising, full curve]	2.31 µM [rising, partial curve]
O=C(CNc1ccccc1F)Nc1cccc(S(=O)(=O)N2CCCCC2)c1	43.8		7.31 µM [rising, partial curve]
O=C(NC(=S)N1CCN(Cc2ccc3c(c2)OCO3)CC1)c1cccc(Br)c1	16.9		
CCOc1ccccc1C(=O)Nc1cc(C(=O)NCC(C)C)ccc1Cl	-9.18	29.1 µM [falling, partial curve]	
COc1ccc(Cc2nnc(SCC(=O)Nc3ccc(N4CCOCC4)cc3)n2C)cc1	40.8		
CN(C)c1cc(-c2ccccc2)nc(-c2ccccc2)n1	15	29.1 µM [rising, single point]	
COC(=O)c1ccc(C(C(=O)NC2CCCCC2)N(Cc2ccc(F)cc2)C(=O)Cc2cccs2)cc1 (stereo unspecified)	-22.2	29.1 µM [falling, single point]	
COc1ccc(CNCCc2ccc(Cl)cc2)cc1OCc1ccccc1	-78.6	20.6 µM [falling, partial curve]	14.6 µM [falling, partial curve]

Compound	cell number change [%]	AC50 [1]	AC50 [2]
NC(=O)CC(NC(=O)c1ccccc1)c1ccc(N2CCN(c3ccccn3)CC2)c([N+](=O)[O-])c1 (stereo unspecified)	4.79	0.206 µM [rising, full curve]	
Cc1cc(C(=O)N2CCN(c3ccccc3)CC2)no1	5.13	0.058 µM [falling, full curve]	
C=CCn1c(SCc2ccc(Br)cc2F)nc2cc(C(=O)O)ccc2c1=O	-2.92	1.16 µM [rising, single point]	
COc1ccc(N2C(=O)NC(NS(=O)(=O)c3ccc(NC(C)=O)cc3)(C(F)(F)F)C2=O)cc1 (stereo unspecified)	-22.3	0.58 µM [falling, single point]	
O=C(COc1ccc(Cl)c(Cl)c1)NC1CCS(=O)(=O)C1 (stereo unspecified)	13.8	29.1 µM [rising, single point]	0.651 µM [falling, single point]
COC(=O)c1c(NC(=O)c2cccc(N3C(=O)CCC3=O)c2)sc2c1CCN(C(C)=O)C2	-28.3	8.2 µM [falling, partial curve]	
NC(=O)c1ccccc1N=Cc1ccccn1	-3.67	0.184 µM [falling, full curve, poor fit]	
CCOc1ccc(CNC(=O)CCCn2nc(C)c3c(C)n(-c4ccc(C)cc4)nc3c2=O)cc1	1.91	6.51 µM [rising, single point]	
C=CCc1ccccc1OCC(O)CN(CC)CC (stereo unspecified)	3.38	6.51 µM [falling, single point]	
CC1CCCN(C(=O)Cc2cccc3ccccc23)C1 (stereo unspecified)	-15.1	0.58 µM [rising, single point]	
COc1cccc(C(=O)c2c[nH]c(C(=O)NCCCN3CCOCC3)c2)c1	13.2		
Cc1cccc2c1NC1(CCCC1)CC2C (stereo unspecified)	-39.9	11.6 µM [falling, partial curve]	0.206 µM [falling, full curve, poor fit]
Cc1ccc(-c2c(C(=O)N/N=C/c3cccnc3)nnn2-c2nonc2N)cc1	25.1		
Cc1cc(C)nc(SCCN2CCOCC2)n1	0.132	6.51 µM [falling, single point]	
COc1ccccc1C(=O)Nc1ccc(S(=O)(=O)Nc2onc(C)c2C)cc1	29.2	29.1 µM [rising, single point]	
COc1ccc(C(=O)OC(C)CN2CCOCC2)cc1OC (stereo unspecified)	-2.33	5.17 µM [falling, single point]	
Cc1ccc(-n2cccc2/C=C2/C(=N)N3C(=NC2=O)SN=C3S(C)(=O)=O)cc1	-13.6		2.91 µM [falling, single point]
CCOc1ccccc1CNC(=O)c1ccc2c(c1)N(CC)CCS2	-10.7		
CCc1nnc(N/N=C/c2ccc(O)c(OC)c2)n1N	-11.7		0.461 µM [rising, full curve, poor fit]
